Measured values: the supplement of paper PMC8728848
Some of the results follow.

What was measured:
Assay in all cases: glycan array binding signal (z-score within array); higher = stronger binding
Conditions in all cases: glycan notation: IUPAC condensed, linker removed
[1] = molecular target: Gal(b1-3)[Fuc(a1-4)]GlcNAc
How it was run: (§1)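 Glycan array data came from 3228 arrays in the Consortium for Functional Glycomics database, and only arrays with an available protein sequence were kept. Glycan names were put into IUPAC-condensed notation, and columns mapping to the same glycan were averaged. The binding signal is a within-array Z-score, averaged across arrays of one protein sequence run at different concentrations or buffers and across linkers. A negative Z-score can be read as non-binding.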

[2] = molecular target: Gal(b1-3)[Fuc(a1-4)]GlcNAc(b1-2)Man(a1-3)[Gal(b1-3)[Fuc(a1-4)]GlcNAc(b1-2)Man(a1-6)]Man(b1-4)GlcNAc(b1-4)GlcNAc
How it was run: as §1

[3] = molecular target: Gal(b1-3)[Fuc(a1-4)]GlcNAc(b1-2)Man(a1-3)[Gal(b1-3)[Fuc(a1-4)]GlcNAc(b1-2)Man(a1-6)]Man(b1-4)GlcNAc(b1-4)[Fuc(a1-6)]GlcNAc
How it was run: as §1

[4] = molecular target: Gal(b1-3)[Fuc(a1-4)]GlcNAc(b1-3)Gal(b1-3)[Fuc(a1-4)]GlcNAc
How it was run: as §1

[5] = molecular target: Gal(b1-3)[Fuc(a1-4)]GlcNAc(b1-3)Gal(b1-4)GlcNAc
How it was run: as §1

[6] = molecular target: Gal(b1-3)[Fuc(a1-4)]GlcNAc(b1-3)Gal(b1-4)[Fuc(a1-3)]GlcNAc
How it was run: as §1

[7] = molecular target: Gal(b1-3)[GlcNAc(b1-6)]GalNAc
How it was run: as §1

[8] = molecular target: Gal(b1-3)[Neu5Ac(a2-6)]GalNAc
How it was run: as §1

[9] = molecular target: Gal(b1-3)[Neu5Ac(a2-6)]GlcNAc(b1-6)Gal(b1-4)Glc
How it was run: as §1

[10] = molecular target: Gal(b1-3)[Neu5Ac(b2-6)]GalNAc
How it was run: as §1

[11] = molecular target: Gal(b1-4)GalNAc(a1-3)[Fuc(a1-2)]Gal(b1-4)GlcNAc
How it was run: as §1

[12] = molecular target: Gal(b1-4)GalNAc(b1-3)[Fuc(a1-2)]Gal(b1-4)GlcNAc
How it was run: as §1

[13] = molecular target: Gal(b1-4)Glc
How it was run: as §1

[14] = molecular target: Gal(b1-4)Glc6S
How it was run: as §1

[15] = molecular target: Gal(b1-4)GlcNAc
How it was run: as §1

[16] = molecular target: Gal(b1-4)GlcNAc(a1-6)Gal(b1-4)GlcNAc
How it was run: as §1

[17] = molecular target: Gal(b1-4)GlcNAc(b1-2)Man(a1-3)Man(b1-4)GlcNAc(b1-4)GlcNAc
How it was run: as §1

[18] = molecular target: Gal(b1-4)GlcNAc(b1-2)Man(a1-3)[Gal(b1-4)GlcNAc(b1-2)Man(a1-6)]Man(b1-4)GlcNAc(b1-4)GlcNAc
How it was run: as §1

[19] = molecular target: Gal(b1-4)GlcNAc(b1-2)Man(a1-3)[Gal(b1-4)GlcNAc(b1-2)Man(a1-6)]Man(b1-4)GlcNAc(b1-4)[Fuc(a1-6)]GlcNAc
How it was run: as §1

[20] = molecular target: Gal(b1-4)GlcNAc(b1-2)Man(a1-3)[GlcNAc(b1-2)Man(a1-6)]Man(b1-4)GlcNAc(b1-4)GlcNAc
How it was run: as §1

[21] = molecular target: Gal(b1-4)GlcNAc(b1-2)Man(a1-3)[Man(a1-6)]Man(b1-4)GlcNAc(b1-4)GlcNAc
How it was run: as §1

[22] = molecular target: Gal(b1-4)GlcNAc(b1-2)Man(a1-6)Man(b1-4)GlcNAc(b1-4)GlcNAc
How it was run: as §1

[23] = molecular target: Gal(b1-4)GlcNAc(b1-2)Man(a1-6)[GlcNAc(b1-2)Man(a1-3)]Man(b1-4)GlcNAc(b1-4)GlcNAc
How it was run: as §1

[24] = molecular target: Gal(b1-4)GlcNAc(b1-2)Man(a1-6)[Man(a1-3)]Man(b1-4)GlcNAc(b1-4)GlcNAc
How it was run: as §1

[25] = molecular target: Gal(b1-4)GlcNAc(b1-2)[Gal(b1-4)GlcNAc(b1-4)]Man(a1-3)[Gal(b1-4)GlcNAc(b1-2)Man(a1-6)]Man(b1-4)GlcNAc(b1-4)GlcNAc
How it was run: as §1

[26] = molecular target: Gal(b1-4)GlcNAc(b1-2)[Gal(b1-4)GlcNAc(b1-4)]Man(a1-3)[Gal(b1-4)GlcNAc(b1-2)[Gal(b1-4)GlcNAc(b1-6)]Man(a1-6)]Man(b1-4)GlcNAc(b1-4)GlcNAc
How it was run: as §1

[27] = molecular target: Gal(b1-4)GlcNAc(b1-3)Gal(b1-3)GlcNAc
How it was run: as §1

[28] = molecular target: Gal(b1-4)GlcNAc(b1-3)Gal(b1-4)Glc
How it was run: as §1

[29] = molecular target: Gal(b1-4)GlcNAc(b1-3)Gal(b1-4)GlcNAc
How it was run: as §1

[30] = molecular target: Gal(b1-4)GlcNAc(b1-3)Gal(b1-4)GlcNAc(b1-3)Gal(b1-4)GlcNAc
How it was run: as §1

[31] = molecular target: Gal(b1-4)GlcNAc(b1-3)Gal(b1-4)[Fuc(a1-3)]GlcNAc(b1-3)Gal(b1-4)[Fuc(a1-3)]GlcNAc
How it was run: as §1

[32] = molecular target: Gal(b1-4)GlcNAc(b1-3)GalNAc
How it was run: as §1

[33] = molecular target: Gal(b1-4)GlcNAc(b1-3)[Gal(b1-4)GlcNAc(b1-6)]Gal(b1-4)GlcNAc
How it was run: as §1

[34] = molecular target: Gal(b1-4)GlcNAc(b1-3)[Gal(b1-4)GlcNAc(b1-6)]GalNAc
How it was run: as §1

[35] = molecular target: Gal(b1-4)GlcNAc(b1-3)[GlcNAc(b1-6)]Gal(b1-4)GlcNAc
How it was run: as §1

[36] = molecular target: Gal(b1-4)GlcNAc(b1-6)Gal(b1-4)GlcNAc
How it was run: as §1

[37] = molecular target: Gal(b1-4)GlcNAc(b1-6)GalNAc
How it was run: as §1

[38] = molecular target: Gal(b1-4)GlcNAc(b1-6)[Gal(b1-3)]GalNAc
How it was run: as §1

[39] = molecular target: Gal3S(b1-3)GalNAc
How it was run: as §1

[40] = molecular target: Gal3S(b1-3)GlcNAc
How it was run: as §1

[41] = molecular target: Gal3S(b1-3)[Fuc(a1-4)]GlcNAc
How it was run: as §1

[42] = molecular target: Gal3S(b1-4)Glc
How it was run: as §1

[43] = molecular target: Gal3S(b1-4)Glc6S
How it was run: as §1

[44] = molecular target: Gal3S(b1-4)GlcNAc
How it was run: as §1

[45] = molecular target: Gal3S(b1-4)GlcNAc6S
How it was run: as §1

B1: SspB (Streptococcus gordonii), P16952 (protein)
chain: MKNKKEVYGFRKSKVAKTLCGAVLGTALIAFADKAVFADEVTETTSTSTVEVATTGNPATNLPEAQGEMSQVAKESQAKAGSKESALPVEVSSADLDKAVADAKSAGVKVVQDETKDKGTATTATDNAQKQDEIKSDYAKQAEEIKTTTEAYKKEVAAHQAETDKINAENKAADDKYQKDLKSHQEEVEKINTANATAKAEYEAKLAQYQKDLATVKKANEDSQQDYQNKLSAYQTELARVQKANAEAKEAYEKAVKENTAKNEALKVENEAIKQRNETAKATYEAAMKQYEADLAAIKKANEDNDADYQAKLAAYQTELARVQKANAEAKEAYDKAVKENTAKNTAIQAENEAIKQRNETAKATYDAAVKKYEADLAAVKQANATNEADYQAKLAAYQTELARVQKANADAKATYEKAVEDNKAKNAAIKAENEEIKQRNAVAKTDYEAKLAKYEADLAKYKKEFAAYTAALAEAESKKKQDGYLSEPRSQSLNFKSEPNAIRTIDSSVHQYGQQELDALVKSWGISPTNPDRKKSRAYSYFNAINSNNTYAKLVLEKDKPVDVTYTGLKNSSFNGKKISKVVYTYTLKETGFNDGTKMTMFASSDPTVTAWYNDYFTSTNINVKVKFYDEEGQLMNLTGGLVNFSSLNRGNGSGAIDKDAIESVRNFNGRYIPISGSSIKIHENNSAYADSSNAEKSLGARWNTSEWDTTSSPNNWYGAIVGEITQSEISFNMASSKSGNIWFAFNSNINAIGVPTKPVAPTAPTQPMYETEKPLEPAPVAPSYENEPTPPVKTPDQPEPSKPEEPTYETEKPLEPAPVAPSYENEPTPPVKTPDQPEPSKPEEPNYETEKPLEPAPVAPSYENEPTPPVKIPDQPEPSKPEEPTYDPLPTPPLAPTPKQLPTPPVVPTVHFHYSSLLAQPQINKEIKNEDGVDIDRTLVAKQSIVKFELKTEALTAGRPKTTSFVLVDPLPTGYKFDLDATKAASTGFDTTYDEASHTVTFKATDETLATYNADLTKPVETLHPTVVGRVLNDGATYTNNFTLTVNDAYGIKSNVVRVTTPGKPNDPDNPNNNYIKPTKVNKNKEGLNIDGKEVLAGSTNYYELTWDLDQYKGDKSSKEAIQNGFYYVDDYPEEALDVRPDLVKVADEKGNQVSGVSVQQYDSLEAAPKKVQDLLKKANITVKGAFQLFSADNPEEFYKQYVATGTSLVITDPMTVKSEFGKTGGKYENKAYQIDFGNGYATEVVVNNVPKITPKKDVTVSLDPTSENLDGQTVQLYQTFNYRLIGGLIPQNHSEELEDYSFVDDYDQAGDQYTGNYKTFSSLNLTMKDGSVIKAGTDLTSQTTAETDATNGIVTVRFKEDFLQKISLDSPFQAETYLQMRRIAIGTFENTYVNTVNKVAYASNTVRTTTPIPRTPDKPTPIPTPKPKDPDKPETPKEPKVPSPKVEDPSAPIPVSVGKELTTLPKTGTNDATYMPYLGLAALVGFLGLGLAKRKED
In the case of B1, the “glycan array binding signal (z-score)” value [1] is reported as -1.32, the “glycan array binding signal (z-score)” value [2] is reported as -1.27 and the “glycan array binding signal (z-score)” value [3] is reported as 1.17. For the same binder, the “glycan array binding signal (z-score)” value [4] was 0.033, the “glycan array binding signal (z-score)” value [5] was -0.661 and the “glycan array binding signal (z-score)” value [6] was -0.848. The “glycan array binding signal (z-score)” value [7] was -0.255, the “glycan array binding signal (z-score)” value [8] was -1.48 and the “glycan array binding signal (z-score)” value [9] was 0.473. The “glycan array binding signal (z-score)” value [10] was -0.113, the “glycan array binding signal (z-score)” value [11] was -0.819 and the “glycan array binding signal (z-score)” value [12] was -0.894. The “glycan array binding signal (z-score)” value [13] was -0.34, the “glycan array binding signal (z-score)” value [14] was -0.905 and the “glycan array binding signal (z-score)” value [15] was -1.08. The “glycan array binding signal (z-score)” value [16] was 0.695, the “glycan array binding signal (z-score)” value [17] was -0.803 and the “glycan array binding signal (z-score)” value [18] was -0.803. For the same binder, the “glycan array binding signal (z-score)” value [19] was -0.46, the “glycan array binding signal (z-score)” value [20] was -0.867 and the “glycan array binding signal (z-score)” value [21] was 1.01. For the same binder, the “glycan array binding signal (z-score)” value [22] was -0.385, the “glycan array binding signal (z-score)” value [23] was 0.126 and the “glycan array binding signal (z-score)” value [24] was 0.917. For the same binder, the “glycan array binding signal (z-score)” value [25] was 1.08, the “glycan array binding signal (z-score)” value [26] was -0.878 and the “glycan array binding signal (z-score)” value [27] was 1.04. For the same binder, the “glycan array binding signal (z-score)” value [28] was -0.77, the “glycan array binding signal (z-score)” value [29] was -0.814 and the “glycan array binding signal (z-score)” value [30] was -0.604. For the same binder, the “glycan array binding signal (z-score)” value [31] was 1.4, the “glycan array binding signal (z-score)” value [32] was 0.26 and the “glycan array binding signal (z-score)” value [33] was 0.02. For the same binder, the “glycan array binding signal (z-score)” value [34] was 5.73, the “glycan array binding signal (z-score)” value [35] was -0.783 and the “glycan array binding signal (z-score)” value [36] was -0.291. For the same binder, the “glycan array binding signal (z-score)” value [37] was 0.085, the “glycan array binding signal (z-score)” value [38] was -1.35 and the “glycan array binding signal (z-score)” value [39] was 1. For the same binder, the “glycan array binding signal (z-score)” value [40] was -0.711, the “glycan array binding signal (z-score)” value [41] was -1.75 and the “glycan array binding signal (z-score)” value [42] was -0.398. The “glycan array binding signal (z-score)” value [43] was -0.598, the “glycan array binding signal (z-score)” value [44] was -0.398 and the “glycan array binding signal (z-score)” value [45] was -0.73.
